Experimental findings from patent US11220528B2, “Compositions and methods for treating pulmonary hypertension” (Marshall University Research Corporation, priority 2017, dated 2022) are described below.

One assay deals with protein carbonylation. The assay is described as follows: Protein carbonylation in lung homogenates of HxSu rats (Western blot). Particulars: 25 mg/kg/week. In kind it is in vivo, rat. The protocol: (§1) Rat model of Sugen5416/Hypoxia (HxSu)-induced PAH and pNaktide treatment. Adult male Sprague-Dawley rats, aged 8 weeks, weighing 300-330 g, were injected subcutaneously with Sugen 5416 weekly, and housed in a hypoxic chamber for up to 4 weeks, as described previously. Animals received pNaKtide or vehicle (normal saline) treatment via intraperitoneal injection at a dose of 1, 10 and 25 mg/kg weekly.
Assessment of protein carbonylation. Lung tissue homogenates were prepared with RIPA buffer. Equal amounts of total protein (15 μg) from each sample were denatured with 6% SDS (final concentration), derivatized with 1×DNPH (freshly diluted with distilled water from 10×DNPH stock solution, 100 mM in 100% trifluoroacetic acid) to form DNP hydrazone derivatives, and then neutralized with neutralization buffer (30% of Glycerol in 2M Tris). This was followed by Western Blotting for protein carbonylation assay. Membrane Ponceau S staining was used for loading control of the protein carbonylation. To quantify the carbonylation level, optical signal densities of the protein bands from each lane were quantified. The signal density values of control samples were normalized to 1.0 with Ponceau S staining as loading control.
On the technique in general: A western blot detects proteins with antibodies after separation by electrophoresis.

For assay [1], the system named is HxSu rats. Put plainly: Right ventricular hypertrophy measurement (Fulton index) in HxSu rats. The assay is classed as in vivo, rat. Particulars: HxSu rats treated with pNaKtide; HxSu 0.55±0.04, normoxic 0.20±0.01; dose not given. On the procedure:
as §1
Right ventricular hypertrophy measurements. After echocardiography, the rats were euthanized and their hearts were isolated, flushed with saline, and dissected to separate the right ventricle (RV) from the left ventricle (LV) plus the septum (S). The Fulton index, which is ratio of the RV weight to LV+S weight (RV/LV+S) was determined to provide a measure for the RV hypertrophy.

The test system of assay [2] is HxSu rats. The assay is described as follows: Picrosirius red stain of collagen deposition (lung vessels, right ventricle) in HxSu rats. In kind it is in vivo, rat. The protocol: as §1
Picrosirius red stain and quantification. Picrosirius red (PSR) stain was performed in 5 μm paraffin sections as described previously. The sections were then serially imaged using an analyzer and polarizer oriented parallel and orthogonal to each other. Microscope conditions (lamp brightness, condenser opening, objective, zoom, exposure time, and gain parameters) were maintained throughout the imaging of all samples. A minimal threshold was set on appropriate control sections for each experiment in which only the light passing through the orthogonally oriented polarizers representing fibrous structures (i.e., excluding residual light from the black background) was included. The threshold was maintained for all images across all conditions within each experiment. The area of the transferred regions that was covered by the thresholded light was calculated and at least 10 sections/vessel per condition were averaged together (NIH ImageJ software).

Assay [3] relates to HxSu rats. Put plainly: Echocardiographic assessment (PAAT, RV wall thickness) in rat model of Sugen5416/Hypoxia (HxSu)-induced PAH. In kind it is in vivo. The protocol:
as §1
Echocardiographic Assessment. At 4 weeks, transthoracic echocardiography was performed by ultrasound on 2% isoflourane-anesthetized rats. Right ventricular wall thickness, pulmonary artery acceleration time (PAAT), cardiac output (CO) and HR were obtained as described.

Assay [4] deals with HxSu rats. The assay is described as follows: Right ventricular systolic pressure measurement in HxSu rats. In kind it is in vivo, rat. Conditions: 25 mg/kg/week, HxSu 122.6±3.9, normoxia 18.7±0.3. On the procedure:
as §1
Right ventricular systolic pressure measurements. After echocardiography, the animals were anesthetized with Ketamine/Xylazine cocktail. The right external jugular vein was exposed and isolated from the surrounding connective tissue. A micromanometer catheter (Millar pressure catheter, 1.0 F) was inserted in to the vein and pushed forward into the right ventricle. The pressure trace was monitored in the software to verify the catheter location and identify the RV pressure. The pressure measurements were recorded for 2 mins. Pressure data was analyzed with LabChart Pro. 8.0.

Assay [5] concerns HxSu rats. Put plainly: Lung histology and immunohistochemistry (vessel wall thickness, plexiform lesions) in HxSu rats. In kind it is in vivo, rat. On the procedure: as §1
Histology and Immunohistochemistry analysis. The lungs were harvested and processed as described. Briefly, the lungs were inflated with 10% formalin at 20 cm H2O pressure and fixed in 10% formalin overnight. The left lobe was blocked and embedded in paraffin. All sections were cut at 5 μm. Representative hematoxylin and eosin-stained (H&E) lung section through the hilum was coded and blindly evaluated for remodeling of pulmonary arteries in the range of 10-150 μm. The vessel wall thickness of each arteriole was measured using Image J and expressed as: 1) percentage of the vessel diameter by the formula (Ed-Id)/Ed×100, where Ed is external diameter and Id is internal diameter; 2) percentage of the vessel area by the formula (areaext-areaint)/areaext, where areaext and areaint are the areas within the external and internal boundaries of the medial wall, respectively. Between 10 and 20 measurements were made per animal, and the average was calculated. […]

Another assay has as its system IL-6 mRNA. Put plainly: Quantitative RT-PCR of IL-6 mRNA in lungs of HxSu rats. The assay is classed as in vivo, rat. Particulars: 25 mg/kg/week. The protocol:
as §1
Quantitative RT-PCR Analysis. Total RNA was purified from crushed whole lung using the Qiagen RNeasy mini kit according to the manufacturer's instructions (Qiagen, Crawley, UK). Five hundred nanograms of total RNA was transcribed to cDNA using QuantiTect Reverse Transcription (Qiagen). Quantitative real-time RT-PCR was performed with the Sequence Detection System ABI Prism 7700 (Applied Biosystems, Warrington, UK) using TaqMan Universal PCR Master Mix, No AmpErase UNG (Part No. 4324018) and the following gene expression assays: IL-6 (Forward: 5′-TTCTCTCCGCAAGAGACTTCC-3′ (SEQ ID NO: 6); Reverse: 5′-TGF GGG TGG TAT CCT CTG TGA-3′ (SEQ ID NO: 7)) and (3-actin (Forward: 5′-AGATCAAGATCATTGCTCCT-3′ (SEQ ID NO: 8); Reverse: 5′-ACGCAGCTCAGTAACAGTCC-3′ (SEQ ID NO: 9)). Samples were run in triplicate. Levels of gene expression in each sample were determined with the comparative Ct method.

On to “GRKKRRQRRRPPQSATWLALSRIAGLCNRAVFQ (TAT NaKtide Fusion Polypeptide (pNaKtide))”, for which, in the assay on protein carbonylation, the “protein carbonylation in lung homogenates” value was “reduced the carbonylation to normal level”. Also, the “Fulton index (RV/LV+S)” value with HxSu rats [1] was 0.36±0.004. The “RV fibrosis (accumulation of collagen in right ventricle)” value with HxSu rats [2] (HxSu rats treated with pNaKtide) is on record as “normalized the fibrosis”. In addition, the “collagen deposition in vessel media and adventitia and lung parenchyma (picrosirius red)” value with HxSu rats [2] (HxSu rats, 25 mg/kg/week, compared with HxSu group) is “attenuated the collagen deposition”. For the same sequence, the “RV thickness assessed by echocardiography” value with HxSu rats [3] (HxSu rats treated with pNaKtide, HxSu 1.65±0.07, normoxic 1.12±0.03, dose not given) is 1.37±0.11 mm. Further, the “pulmonary artery acceleration time (PAAT)” value in the assay with HxSu rats [3] (HxSu rats, 25 mg/kg/week intraperitoneal, at 4 weeks, vs HxSu group) is given as “significantly reverse in PAAT”. Besides, the “right ventricular systolic pressure (RVSP)” value with HxSu rats [4] is 49.7±0.5 mmHg. Further, the “medial wall thickening of pulmonary arterioles” value with HxSu rats [5] (intraperitoneal injection, 1-25 mg/kg) is reported as “dose-dependently reduced”. Besides, the “number of plexiform lesions (PLs)” value in the assay with HxSu rats [5] (lowest dose 1 mg/kg/week, 20 random fields at 20x, HxSu 13.80±4.23) stood at 2.16±1.081. Besides, the “decrease of IL-6 mRNA levels in the lungs compared with HxSu group” value with IL-6 mRNA was determined as 40%.
